These are yes or no findings as the source states them, for the method shown. Binding seen in cells or lysates may run through a third protein. Binding can be weak; no strength is given.
B1: Foxc2 (protein, UniProt Q61850 1-494)
chain: MQARYSVSDPNALGVVPYLSEQNYYRAAGSYGGMASPMGVYSGHPEQYGAGMGRSYAPYHHQPAAPKDLVKPPYSYIALITMAIQNAPEKKITLNGIYQFIMDRFPFYRENKQGWQNSIRHNLSLNECFVKVPRDDKKPGKGSYWTLDPDSYNMFENGSFLRRRRRFKKKDVPKDKEERAHLKEPPSTTAKGAPTGTPVADGPKEAEKKVVVKSEAASPALPVITKVETLSPEGALQASPRSASSTPAGSPDGSLPEHHAAAPNGLPGFSVETIMTLRTSPPGGDLSPAAARAGLVVPPLALPYAAAPPAAYTQPCAQGLEAAGSAGYQCSMRAMSLYTGAERPAHVCVPPALDEALSDHPSGPGSPLGALNLAAGQEGALGASGHHHQHHGHLHPQAPPPAPQPPPAPQPATQATSWYLNHGGDLSHLPGHTFATQQQTFPNVREMFNSHRLGLDNSSLGESQVSNASCQLPYRATPSLYRHAAPYSYDCTKY
modifications: [35S]methionine-labelled
B2: Foxc1 (protein, UniProt Q61572 1-553)
chain: MQARYSVSSPNSLGVVPYLGGEQSYYRAAAAAAGGGYTAMPAPMSVYSHPAHAEQYPGSMARAYGPYTPQPQPKDMVKPPYSYIALITMAIQNAPDKKITLNGIYQFIMDRFPFYRDNKQGWQNSIRHNLSLNECFVKVPRDDKKPGKGSYWTLDPDSYNMFENGSFLRRRRRFKKKDAVKDKEEKGRLHLQEPPPPQAGRQPAPAPPEQAEGSAPGPQPPPVRIQDIKTENGTCPSPPQPLSPAAALGSGSAATVPKIESPDSSSSSLSSGSSPPGSLPSARPLSLDAAEPAPPPQPAPPPHHSQGFSVDNIMTSLRGSPQGSAAELGSGLLASAAASSRAGIAPPLALGAYSPGQSSLYSSPCSQSSSAGSSGGGGGGGGGGGGSSSAAGTGGAATYHCNLQAMSLYAAGERGGHLQGPAGGAGSAAVDDPLPDYSLPPATSSSSSSLSHGGGGQEASHHPASHQGRLTSWYLNQAGGDLGHLASAAAAAAAAGYPGQQQNFHSVREMFESQRIGLNNSPVNGNSSCQMAFPASQSLYRTSGAFVYDCSKF
modifications: [35S]methionine-labelled

Target: GST-Su(H)
Test: pull-down; GST-fusion proteins on glutathione-agarose beads mixed (1:1) with 35S-labelled in vitro translated proteins in lysis buffer (50 mM Tris pH 8.0, 150 mM NaCl, 0.1% SDS, sodium deoxycholate, protease inhibitors), 1 h at 4°C; SDS-PAGE, autoradiography; only the target purified

| Binder | binding |
| --- | --- |
| B1 | binds |
| B2 | no binding |

Reference: paper PMC2398774
